Results deposited as PubChem BioAssay AID1259308 (NCATS, 2017)
Test: 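Genes whose loss raises luciferase production in HEK293 cells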 (primary screen). Cells: human HEK293 embryonic kidney cells stably expressing firefly luciferase (HEK-CMV-Luc2-Hygro). Reagent: single siRNA against human genes, 0.8 pmol siRNA per well. Time to read-out: 72 h. Measured: 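Luciferase light (ONE-Glo) measured on one replicate plate set and viability (CellTiter-Glo) on the other, scaled to a negative control siRNA, with robust z-scores and luciferase per cell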. Reading the numbers: total luciferase, z-score: higher = more reporter protein produced. Rule for the call: 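Active when the median/MAD z-score for overall luciferase is greater than 3; a gene was taken forward for validation with new siRNAs if at least two of its three siRNAs passed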. Calls: active = raised luciferase; inactive = no rise.
Here is a random part of about 59,000 reagents tested. About 1,510 of all reagents (2.6%) were called active. 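Calls use total luciferase alone and ignore viability, so some active siRNAs may act by altering cell number.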 Reagents against one gene are numbered here. Further read-outs or replicates are left out here.

Knock-down of ENPP6 (ectonucleotide pyrophosphatase/phosphodiesterase 6) #1 gave: total luciferase, z-score -0.286; inactive.
With knock-down of ENPP6 (ectonucleotide pyrophosphatase/phosphodiesterase 6) #2, the screen gave total luciferase, z-score 0.192; inactive.
Knock-down of ENPP6 (ectonucleotide pyrophosphatase/phosphodiesterase 6) #3 resulted in: total luciferase, z-score 0.619; inactive.
After knock-down of FAM3B (FAM3 metabolism regulating signaling molecule B) #1 the results were total luciferase, z-score -1.01; inactive.
For FAM3B (FAM3 metabolism regulating signaling molecule B) #2 the deposit lists total luciferase, z-score -0.208; inactive.
FAM3B (FAM3 metabolism regulating signaling molecule B) #3 scored total luciferase, z-score -1.67; inactive.
Depletion of CTAGE15 (CTAGE family member 15) #1 resulted in: total luciferase, z-score 0.544; inactive.
Depletion of CTAGE15 (CTAGE family member 15) #2 came out at: total luciferase, z-score 0.17; inactive.
With knock-down of CTAGE15 (CTAGE family member 15) #3 the results were total luciferase, z-score 2.16; inactive.
Depletion of ZNF768 (zinc finger protein 768) #1 gave: total luciferase, z-score -0.00418; inactive.
Against ZNF768 (zinc finger protein 768) #2, the values are total luciferase, z-score -1.56; inactive.
Depletion of ZNF768 (zinc finger protein 768) #3 gave: total luciferase, z-score -0.702; inactive.
SLC52A1 #1 scored total luciferase, z-score 0.00629; inactive.
After knock-down of SLC52A1 #2 the results were total luciferase, z-score -0.567; inactive.
SLC52A1 #3 showed total luciferase, z-score 1.56; inactive.
Against TANK (TRAF family member associated NFKB activator) #1, the values are total luciferase, z-score -0.555; inactive.
Silencing of TANK (TRAF family member associated NFKB activator) #2 came out at: total luciferase, z-score 1.37; inactive.
With knock-down of TANK (TRAF family member associated NFKB activator) #3, the screen gave total luciferase, z-score 0.0743; inactive.
NID1 (nidogen 1) #1 showed total luciferase, z-score 0.31; inactive.
Depletion of NID1 (nidogen 1) #2 resulted in: total luciferase, z-score -0.244; inactive.
NID1 (nidogen 1) #3 gave total luciferase, z-score -0.443; inactive.
Knock-down of RTRAF (RNA transcription, translation and transport factor) #1 came out at: total luciferase, z-score 0.348; inactive.
Silencing of RTRAF (RNA transcription, translation and transport factor) #2 resulted in: total luciferase, z-score 0.377; inactive.
Against RTRAF (RNA transcription, translation and transport factor) #3 the deposit lists total luciferase, z-score -1.32; inactive.
Knock-down of C20orf204 (chromosome 20 open reading frame 204) #1 gave: total luciferase, z-score 0.375; inactive.
After knock-down of C20orf204 (chromosome 20 open reading frame 204) #2, the screen gave total luciferase, z-score -0.652; inactive.
For C20orf204 (chromosome 20 open reading frame 204) #3 the deposit lists total luciferase, z-score 3.49; active.
After knock-down of JAML (junction adhesion molecule like) #1 the results were total luciferase, z-score 0.949; inactive.
Knock-down of JAML (junction adhesion molecule like) #2 came out at: total luciferase, z-score 0.418; inactive.
With knock-down of JAML (junction adhesion molecule like) #3, the screen gave total luciferase, z-score 0.11; inactive.
Knock-down of OR5M11 (olfactory receptor family 5 subfamily M member 11) #1 resulted in: total luciferase, z-score -0.268; inactive.
For OR5M11 (olfactory receptor family 5 subfamily M member 11) #2, the entry reads total luciferase, z-score -0.822; inactive.
After knock-down of OR5M11 (olfactory receptor family 5 subfamily M member 11) #3, the screen gave total luciferase, z-score 0.0232; inactive.

Targets above whose target name starts with O or o:
OR5M11 (olfactory receptor family 5 subfamily M member 11) #1: total luciferase, z-score = -0.268; Call = inactive
OR5M11 (olfactory receptor family 5 subfamily M member 11) #2: total luciferase, z-score = -0.822; Call = inactive
OR5M11 (olfactory receptor family 5 subfamily M member 11) #3: total luciferase, z-score = 0.0232; Call = inactive
